For 36 compounds, AC50 results are on record in PubChem BioAssay AID445 (National Center for Advancing Translational Sciences (NCATS), 2006).

As usually defined, the AC50 is the midpoint of the concentration-response curve, whichever way the signal moves.

The structures appear in SMILES notation. Values joined by “and” are separate entries in the source; they are usually repeats but may differ in a detail not shown here. Equal values may be shown once. The list shows a part of the results. Further columns of the screen follow, without active or inactive calls. Most of these compounds were active or inconclusive in the main read-out, so they are no random draw. Potencies come from curve fits of mixed quality, noted in brackets.

A short description of the assay: IkB Signaling. Particulars: ABC-DLBCL IkBa-CBG/CBR dual luciferase ratio (green luciferase fused to IkBa over red control in OCI-Ly3 lymphoma cells), 4 h; measured here: control luc red channel unless noted. The method in brief: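 Luminescence ratio of IκBα-fused green versus native red beetle luciferase in OCI-Ly3 cells, 4 h post-doxycycline with compound; red signal alone, scaled from basal (0%) to zero light (-100%), flagged nonspecific or cytotoxic effects.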
Consider `Cc1oc2c(cc(NS(=O)(=O)c3ccc(Cl)cc3)c3ccccc32)c1C(=O)OCc1ccccc1`, for which the concentration at half-maximal activity (AC50) was 20 µM [falling, single point].

Regarding `COc1ccc(C2C=C(c3ccc(Br)s3)Nc3ncnn32)cc1OC` (stereo unspecified), the half-maximal activity concentration (AC50) is 15.8 µM [falling, partial curve]. The same measure for `O=S(=O)(Nc1cccc(-c2cn3ccsc3n2)c1)c1ccc(F)cc1`: 31.6 µM [falling, partial curve]. The same measure for `CCc1cccc(C)c1Nc1c(-c2cccs2)nc2nc(C)cc(C)n12`: 39.8 µM [falling, single point]; for `O=C(CSc1nc2ccccc2nc1Cc1ccccc1F)Nc1cccc(C(F)(F)F)c1`: 5.01 µM [falling, full curve]; for `CCC(=O)Nc1ccc(CC)cc1-c1nc2ccccc2n(CC(=O)Nc2ccccc2C)c1=O`: 12.6 µM [falling, partial curve]. To `COc1ccc(-c2onc(C)c2C)cc1S(=O)(=O)Nc1cc(Cl)ccc1C` belongs 0.158 µM [rising, full curve]; to `COc1ccc(-c2cc3nc(C)c(CCC(=O)N4CCN(c5ccccc5F)CC4)c(C)n3n2)c(OC)c1`, 0.794 µM [falling, full curve].

In the case of `COC(=O)C1=C(C)NC(=O)NC1c1cn(-c2ccccc2)nc1-c1cccs1` (stereo unspecified), the half-maximal activity concentration (AC50) was 20 µM [falling, partial curve]. In the case of `COc1ccccc1-c1cc(C(F)(F)F)nc(S(=O)(=O)CCCC(=O)Nc2cc(C)on2)n1`, the half-maximal activity concentration (AC50) was 1.58 µM [falling, full curve, poor fit]. The same measure for `COc1cc2c(cc1OC)C(COc1ccc(F)cc1)N(C(=O)Cc1ccccc1)CC2` (stereo unspecified): 39.8 µM [falling, single point]; for `CCOc1ccccc1C(=O)N1CC(=O)Nc2ccc(C)cc2C1c1ccccc1` (stereo unspecified): 31.6 µM [falling, single point]; for `Cc1nn2c(=O)cc(COc3ccc(/C=C(\C#N)C(=O)Nc4ccccc4)cc3Cl)nc2s1`: 7.94 µM [rising, partial curve].

`O=C(OCc1ccccc1Cl)c1ccc(-c2nnn(Cc3ccc(F)cc3)n2)cc1`: the concentration at half-maximal activity (AC50) is 3.16 µM [rising, full curve].

For `Brc1ccc2c(c1)NC(c1cccnc1)=NC(c1ccccc1)=N2`, the half-maximal activity concentration (AC50) was 3.16 µM [rising, partial curve]. To `O=C(c1cccs1)N1CCC(c2ccccc2)C1` (stereo unspecified) belongs 3.16 µM [falling, partial curve]; to `CCOC(=O)CCNC(=O)Nc1ccc2nc(C)n(Cc3cccc(Cl)c3)c(=O)c2c1`, 31.6 µM [falling, single point]. Regarding `COc1cc(-c2noc(-c3ccccc3C(=O)NCc3ccco3)n2)cc(OC)c1OC`, the half-maximal activity concentration (AC50) was 7.94 µM [falling, partial curve]. To `COc1cccc2c1C(=O)c1c(O)c3c(c(O)c1C2=O)C[C@@](O)(C(C)=O)C[C@@H]3O[C@H]1C[C@H](N)[C@H](O)[C@H](C)O1` belongs 31.6 µM [falling, partial curve] and 501 nM [falling, full curve]. To `COc1cc(-c2nc3oc4ccccc4c(=O)c3c(=O)n2Cc2ccco2)cc(OC)c1OC` belongs 6.31 µM [falling, partial curve]. The same measure for `COC(=O)c1ccc(CN2C(=O)NC3(CCCCC3C)C2=O)o1` (stereo unspecified): 3.16 µM [falling, partial curve]; for `O=S(=O)(NCC(c1ccccc1)N1CCc2ccccc21)c1ccccc1` (stereo unspecified): 12.6 µM [falling, partial curve]. Consider `O=c1c2ccccc2n(Cc2c(F)cccc2Cl)c(=O)n1Cc1ccccc1`, for which the concentration at half-maximal activity (AC50) is 6.31 µM [falling, full curve]. With `CCn1c(=O)cc(OCC(=O)N2CCN(c3cccc(Cl)c3)CC2)c2ccccc21`, the AC50 was 12.6 µM [falling, partial curve]. To `O=C(NCc1cccs1)C1CCN(c2ccc(S(=O)(=O)N3CCOCC3)cc2Cl)CC1` belongs 25.1 µM [falling, single point]; to `COc1cc(C(=O)N2CCC(c3nc4ccccc4s3)CC2)cc(OC)c1OC`, 39.8 µM [falling, single point]; to `CCc1ccc(-c2cc(C)no2)cc1S(=O)(=O)Nc1cc(OC)c(OC)c(OC)c1`, 39.8 µM [falling, single point]. The same measure for `Cc1ccc(S(=O)(=O)N2CCN(Cc3ccc4c(c3)OCO4)CC2)cc1`: 10 µM [falling, partial curve]; for `COc1ccc(C2=C(C)C(=NCc3ccc(OC(C)C)cc3)NS2(=O)=O)cc1`: 15.8 µM [falling, partial curve]; for `Cc1ccc2c(c1)sc1nc(=O)n(-c3ccc(Cl)c(Cl)c3)c(=O)n12`: 20 µM [falling, single point]. For the compound `Cc1cccc(N2CCN(c3ccc(NC(=O)c4ccccc4)cc3C(=O)O)CC2C)c1` (stereo unspecified), the AC50 was 1.26 µM [rising, full curve]. The same measure for `COc1ccc(-c2noc(CSc3nc(N)cc(=O)[nH]3)n2)cc1`: 1.58 µM [rising, partial curve]; for `N#Cc1ccc(NC(=O)N2CCC(c3nc4c(nnn4Cc4cccc(Cl)c4)c(=O)[nH]3)CC2)cc1`: 25.1 µM [falling, partial curve]. As for `COc1ccccc1C(=O)Nc1onc2c1CCCC2`, the AC50 was 3.98 µM [rising, full curve]. The same measure for `CCOc1ccc(C(=O)c2cn(CC(=O)Nc3ccc(F)c(F)c3)c3cc4c(cc3c2=O)OCCO4)cc1`: 2 µM [falling, full curve]; for `COc1cccc(NC(=O)CCc2nc(-c3cccs3)no2)c1`: 39.8 µM [falling, single point].
